For this assay, the target named is [3H]-LCGA-17 binding site in rat brain membranes (putative α2δ). The assay can be described thus: [3H]-LCGA-17 radioligand competition binding assay. (In general: Loss of bound radioactivity is the signal in a displacement assay; it reports binding, not function.)

The values below come from paper PMC8372404 (Frontiers in Neuroscience, 2021).

A value given as a limit tells only on which side of the number the result lay.

As to `NCCCC(=O)O` [GABA, γ-aminobutyric acid], the concentration for half-maximal inhibition (IC50) (in general, the concentration that inhibits the measured activity by half) (competition of [3H]-LCGA-17 binding to rat brain (cortical) membranes, text and Figure 3) is greater than 100 µM.

Regarding `O=C(CCCN1CCC2(CC1)C(=O)NCN2c1ccccc1)c1ccc(F)cc1` [Spiperone], the IC50 (competition of [3H]-LCGA-17 (16 nM) binding, rat brain membranes, Table S1) was greater than 100 µM.
